Test results published in PMC6056500, “Novel interactomics approach identifies ABCA1 as direct target of evodiamine, which increases macrophage cholesterol efflux” (Scientific Reports, 2018).

Molecular target: T1, recombinant ABCA1 peptide (Abcam #ab125995, covering C-terminal domain 2085-2245aa) (UniProt O95477)
T1 sequence: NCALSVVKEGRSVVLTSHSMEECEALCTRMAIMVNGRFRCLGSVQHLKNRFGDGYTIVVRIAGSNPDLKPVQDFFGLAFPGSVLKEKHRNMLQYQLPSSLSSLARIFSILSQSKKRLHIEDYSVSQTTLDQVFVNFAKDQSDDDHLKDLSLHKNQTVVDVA
Assay: SPR; Biacore 3000; ABCA1 peptide immobilised on a CM5 chip by amine coupling; proteins dialysed against HBS-E (10 mM Hepes, 150 mM NaCl, 3 mM EDTA); ALDH1A1 injected at 6e-8 to 1e-6 M; 1:1 fit (Langmuir or drifting baseline); both purified

binding: no binding
Substance: natural human LMW (low molecular weight) kininogen

Results are given in words; binding and its absence hold for the method and conditions named.
